The target in assay [1] is human taurine transporter (TauT), full-length wild type (human) (UniProt P31641). Nature of the assay: cryo-EM structure.
Assay [2] shares this target. Nature of the assay: cryo-EM structure. The source holds these as a separate data set.

Like-named read-outs stand apart in the source and are kept apart here. These are yes or no findings as the source states them, for the method shown.

B1: human taurine transporter (TauT), full-length wild type (protein, UniProt P31641 1-620)
chain: MATKEKLQCLKDFHKDILKPSPGKSPGTRPEDEAEGKPPQREKWSSKIDFVLSVAGGFVGLGNVWRFPYLCYKNGGGAFLIPYFIFLFGSGLPVFFLEIIIGQYTSEGGITCWEKICPLFSGIGYASVVIVSLLNVYYIVILAWATYYLFQSFQKELPWAHCNHSWNTPHCMEDTMRKNKSVWITISSTNFTSPVIEFWERNVLSLSPGIDHPGSLKWDLALCLLLVWLVCFFCIWKGVRSTGKVVYFTATFPFAMLLVLLVRGLTLPGAGAGIKFYLYPDITRLEDPQVWIDAGTQIFFSYAICLGAMTSLGSYNKYKYNSYRDCMLLGCLNSGTSFVSGFAIFSILGFMAQEQGVDIADVAESGPGLAFIAYPKAVTMMPLPTFWSILFFIMLLLLGLDSQFVEVEGQITSLVDLYPSFLRKGYRREIFIAFVCSISYLLGLTMVTEGGMYVFQLFDYYAASGVCLLWVAFFECFVIAWIYGGDNLYDGIEDMIGYRPGPWMKYSWAVITPVLCVGCFIFSLVKYVPLTYNKTYVYPNWAIGLGWSLALSSMLCVPLVIVIRLCQTEGPFLVRVKYLLTPREPNRWAVEREGATPYNSRTVMNGALVKPTHIIVETMM
Regarding B1, the values for the binding entry in assay [1] and in assay [2] were “no binding (tested: 22.0 mg/mL)” and “no binding (tested: 1.2 mg/mL)”, respectively.
